Assay results from PubChem BioAssay AID1487 (National Center for Advancing Translational Sciences (NCATS), 2009).
Several values for one entry are separate records, joined by “and”; a condition that tells them apart may be missing. Identical values can stand only once. The list shows a part of the results. These are further read-outs of the screen, such as a control signal, another cell line or another target. No call is given for them. Compounds called inactive in the main read-out are mostly missing here. Potencies come from curve fits of mixed quality, noted in brackets.

Experiment: qHTS Assay for Modulators of Lamin A Splicing
Settings: HeLa LMNA splicing GFP/RFP minigene ratio, 48 h
Method in brief: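 S3 HeLa cells stably expressing lamin A-EGFP splicing minigene plus DsRed2, 600 cells/well, 48 h compound exposure at 37C. Laser-scanning cytometry; analysed as GFP (500-530 nm)/RFP (575-640 nm) total intensity ratio; 0.5% DMSO vehicle.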

[1] = measured here: RFP viability control channel
[2] = measured here: GFP splicing reporter channel

Structure (SMILES)	AC50 [1]	AC50 [2]
Cc1ccc2c(c1)nnn2C1CCN(S(=O)(=O)c2cccc(S(=O)(=O)N(C)C)c2)CC1	10 µM [rising, partial curve]	–
Cn1cc(CN2CCCC(CO)(Cc3ccccc3)C2)c2ccccc21 (stereo not given)	1 µM [falling, full curve, poor fit]	17.8 µM [falling, partial curve]
Oc1cccc2ccc(/C=C/c3c(F)cccc3Cl)nc12	12.6 µM [rising, partial curve, poor fit]	–
N#CC1=C(N)NC(=S)C(C(N)=O)C1c1ccc(Cl)cc1Cl (stereo not given)	17.8 µM [rising, single point]	–
CCOC(=O)c1c(C)oc2ccc(N(C(=O)c3ccncc3)S(=O)(=O)c3ccc(Br)cc3)cc12	7.94 µM [falling, single point]	–
Cc1ccc(S(=O)(=O)N2CCC(=O)N(C(COCc3cccc(C(F)(F)F)c3)C(C)C)CC2)cc1 (stereo not given)	20 µM [rising, single point]	11.2 µM [rising, single point]
O=c1[nH][nH]c(-c2ccccc2O)c1C(C[N+](=O)[O-])c1ccc(Br)cc1 (stereo not given)	17.8 µM [rising, partial curve, poor fit]	10 µM [rising, partial curve, poor fit]
CN1c2ccccc2C(C)(C)C12CC(c1ccc(S(=O)(=O)N3CCCCC3)cc1)=NO2 (stereo not given)	2 µM [rising, full curve]	–
Cc1cccc(NC(=O)Cn2c(=O)nc(-c3ccccc3)c3ccccc32)c1C	3.16 µM [rising, partial curve, poor fit]	–
COc1ccc(C2=NOC(C(=O)Nc3cccnc3)C2)cc1 (stereo not given)	31.6 µM [rising, single point]	–
Cc1nn(Cc2ccc(Cl)cc2)c(C)c1NC(=O)c1noc2c1CCCCC2	31.6 µM [rising, single point]	35.5 µM [rising, single point]
CCN(CC)S(=O)(=O)c1ccc(C)c(NC(=O)CSc2nc3ccccc3[nH]2)c1	22.4 µM [rising, partial curve]	–
CCNC(=S)N(CCc1c(C)[nH]c2ccccc12)Cc1cc(OC)c(OC)c(OC)c1	14.1 µM [rising, partial curve]	–
O=C(Nc1ccc(F)c(Cl)c1)c1ccc2c(=O)n3c(nc2c1)CCCCC3	3.98 µM [rising, full curve]	3.16 µM [rising, full curve]
CCOC(=O)c1c(NC(=O)/C=C/C(=O)O)sc(C)c1-c1ccc(Cl)cc1	2 µM [falling, partial curve, poor fit]	–
CC1CC(NC(=O)N(C)C)N(C)C(=O)N1 (stereo not given)	7.94 µM [falling, partial curve, poor fit]	11.2 µM [falling, partial curve, poor fit]
Cc1nn(Cc2ccc(F)cc2)c(C)c1NC(=O)c1cc(-c2ccc3c(c2)OCO3)on1	0.891 µM [falling, full curve, poor fit]	–
O=S(=O)(Nc1ccc(-c2ccc(N3CCCC3)nn2)cc1)c1cccc(C(F)(F)F)c1	0.00355 µM [falling, full curve, poor fit]	0.00316 µM [falling, full curve, poor fit]
CC(C)N(CCC(=O)c1ccc2ccccc2c1)Cc1ccccc1	3.55 µM [falling, full curve]	3.55 µM [falling, full curve]
COc1cccc(NC(=O)Cc2nc(-c3ccccc3)sc2-c2ccc(C)cc2)c1	35.5 µM [rising, single point]	35.5 µM [rising, single point]
CCOc1ccc(NC(=O)CN2CCN(CC(=O)Nc3ccccc3OCC)CC2)cc1	0.794 µM [rising, full curve, poor fit]	0.794 µM [rising, full curve, poor fit]
CC1CCCCN1C(=O)CCc1nnc(Cc2c[nH]c3ccccc23)o1 (stereo not given)	1.12 µM [falling, full curve, poor fit]	0.0224 µM [falling, full curve, poor fit]
Cc1nn(Cc2ccc(C(=O)Nc3nccs3)cc2)c(C)c1Cl	15.8 µM [rising, partial curve]	12.6 µM [rising, partial curve]
Cc1ccc(NC(=S)Nc2ccc(C(C)C)cc2)cc1S(=O)(=O)N1CCCCCC1	11.2 µM [rising, partial curve]	8.91 µM [rising, partial curve]
Cc1ccc(Nc2nnc(SCc3nc4ccccc4c(=O)[nH]3)s2)cc1	–	3.98 µM [rising, full curve]
Cc1ccccc1N1CCN(c2ncnc3c2cnn3Cc2ccc(Cl)cc2)CC1	11.2 µM [rising, partial curve]	–
Cc1csc(SCC(=O)Nc2ccc(S(=O)(=O)N3CCCC3)cc2)n1	–	12.6 µM [rising, single point]

Structure (SMILES)	AC50 [1]	AC50 [2]
CCOc1ccc(S(=O)(=O)Nc2ccccc2C(=O)NCc2ccco2)cc1	6.31 µM [rising, partial curve, poor fit]	11.2 µM [rising, partial curve, poor fit]
C=CCNC(=S)N/N=C(\C)c1ccccn1	–	15.8 µM [falling, single point]
Clc1ccc(OC2CCN(Cc3nc(CC4CC4)no3)CC2)cc1	0.158 µM [falling, full curve, poor fit]	0.141 µM [falling, single point]
Cc1cccc(-n2ncc3c(NCc4ccccc4)ncnc32)c1	7.08 µM [rising, full curve, poor fit]	–
Cc1cc(N/N=C/c2ccccc2Cl)nc(NCc2ccccc2)n1	35.5 µM [rising, single point]	35.5 µM [rising, single point]
O=C(Nc1ccc2oc(-c3ccccc3F)nc2c1)c1ccc2c(c1)OCCO2	17.8 µM [falling, single point]	14.1 µM [falling, single point]
CCc1ccc(C(=O)OCC(=O)NCC(F)(F)F)cc1	0.00447 µM [rising, full curve, poor fit]	0.00794 µM [rising, full curve, poor fit]
Cc1ccc(C(=O)c2c(NC(=O)CSc3nnc(N)s3)sc3c2CCCC3)cc1	12.6 µM [rising, partial curve]	–
COc1ccc(S(=O)(=O)N(C(C)=O)c2ccc(OC(C)=O)c3ccccc23)cc1[N+](=O)[O-]	–	22.4 µM [falling, single point]
NC(=O)c1ccc(C(F)(F)F)n(Cc2ccccc2Cl)c1=O	–	35.5 µM [rising, single point]
Cc1cc(C(=O)COC(=O)c2nccnc2N)c(C)n1C	–	12.6 µM [rising, single point]
CC(=O)/C(N=Nc1ccc2c(c1)OCO2)=C(\C)O	35.5 µM [falling, single point]	–
Fc1ccc(Cn2c(-c3cccc(Br)c3)nc3ccccc32)cc1	11.2 µM [rising, single point]	–
Cc1ccc(C(O)(C(=O)NNc2ccc3ccccc3n2)c2ccc(C)cc2)cc1	17.8 µM [rising, partial curve] and 22.4 µM [rising, single point]	–
CC(C)CC(=O)NC1(C(F)(F)F)NC(=O)N(c2ccccc2)C1=O (stereo not given)	0.708 µM [rising, partial curve]	7.94 µM [rising, partial curve, poor fit]
Nn1cnc2c(c1=O)C1(CCCCC1)Cc1ccccc1-2	–	22.4 µM [rising, single point]
Cc1nn(Cc2ccccc2Cl)c2sc(C(=O)Nc3ccccc3N3CCOCC3)cc12	15.8 µM [rising, single point]	11.2 µM [rising, single point]
CCCSCC(=O)Nc1ncc2c(n1)-c1ccccc1CC2	0.0282 µM [falling, full curve, poor fit]	–
NC(=O)/C(=C\c1cccnc1)NC(=O)c1ccccc1	0.282 µM [falling, partial curve, poor fit]	–
CC1C(=O)CCN(C(C)(C)C)C1C (stereo not given)	31.6 µM [rising, single point]	–
Cc1cc(C)nc(N2CCN(C(=O)c3ccc(S(=O)(=O)N4CCCCCC4)cc3)CC2)n1	1.41 µM [rising, full curve, poor fit]	1 µM [rising, partial curve]
Cc1cccc(C(=O)N[C@H](C(=O)Nc2nc3ccc(S(C)(=O)=O)cc3s2)C(C)C)c1	–	7.08 µM [falling, partial curve, poor fit]
Cc1ccccc1S(=O)(=O)Nc1ncc(C(F)(F)F)cc1Cl	5.62 µM [rising, single point]	–
COc1ccccc1-c1cc(C(F)(F)F)nc(S(C)(=O)=O)n1	22.4 µM [falling, single point]	–
OCCNc1nc(SCc2ccccc2)nc2sc3c(c12)CCC3	2.51 µM [falling, partial curve]	2.51 µM [falling, partial curve]
Cc1oc(CC(C)C)cc1C(=O)Nc1ccc(C(=O)O)cc1	–	7.94 µM [rising, partial curve, poor fit]
